The text below walks through data of patent publication US20160178622.

For at least one entry, the source does not settle the construct or the ends of the probe. No signal at the amounts used counts as a negative. Tags and fusion partners may be left off the protein sequences shown.

This data set has as its target T1, Ara h 2 (peanut allergen) (UniProt Q6PSU2).
T1 sequence (looked up, limits assumed): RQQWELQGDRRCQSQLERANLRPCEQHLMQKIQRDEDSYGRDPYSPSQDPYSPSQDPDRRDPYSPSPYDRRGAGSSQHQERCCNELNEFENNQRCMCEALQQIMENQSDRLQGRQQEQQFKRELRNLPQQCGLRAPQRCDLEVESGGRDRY
The data set can be described thus: binding assay. Particulars: 5' amino group with C6 carbon spacer; CITED binding of Ara h 2 to aptamer considered negligible as documented in the art; competitor reference experiment on aptasensor mentioned but result not given; purified native protein; single-stranded DNA.

As to “TCGCACATTCCGCTTCTACCGGGGGGGTCGAGCTGAGTGGATGCGAATCTGTGGGTGGGCCGTAAGTCCGTGTGTGCGAA [Ara h 1 aptamer (Tran et al.)]”, the binding result was “no binding”.
